Here are results for two molecules from the supplement of paper PMC10646978.

SMILES strings stand for the structures. ± gives the standard deviation. Only a part is listed here, and it is no random draw.

Common to all, as to settings: modulator concentration 10 µM
The test system of assay [1] is RAW-Dual (murine macrophage reporter line). The experiment in a line: NF-kB reporter (SEAP) activity fold change vs agonist alone; higher = enhanced NF-kB activity. The method, boiled down:
(§1)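 RAW-Dual murine macrophage reporter cells were seeded at 50 000 per well in 384-well plates and pre-incubated 1 hour at 37 °C with compound pin-transferred to 10 μM final. After 1 hour, a PRR agonist was added and cells incubated overnight. Supernatant NF-κB (SEAP, QUANTI-Blue, 620 nm absorbance) and IRF (Lucia luciferase, QUANTI-Luc, luminescence) signals were divided by the mean agonist-only control on the same plate to give fold change. Two replicate plates were averaged, with errors by propagation.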

For assay [2] the test system is unchanged. The experiment in a line: IRF reporter (Lucia luciferase) activity fold change vs agonist alone; higher = enhanced IRF activity. The procedure, abridged: as §1
Assay [3] has the same test system. Description: viability score (confluency relative to resting cells, overnight) (fraction); higher = more viable, active = viable (0.7 or more). The procedure, abridged: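 Confluency was the readout: RAW-Dual macrophages were imaged with IncuCyte after an overnight exposure to compound at 10 μM final. IncuCyte software produced two masks over all imaged wells. The viability score expresses confluency against resting cells, and both masks had to exceed 70% of resting cells for a compound to meet the cutoff.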

[4] abbreviates: agonist: CpG ODN 1826 0.5 ug/mL.

Consider `Br.CN1C2CCC1CC(OC(=O)C(O)c1ccccc1)C2` (stereo not drawn), for which the NF-kB reporter stood at 1.26 ± 0.34 in assay [1] (setting [4]), 1.07 ± 0.17 in assay [1] (agonist: LPS 0.1 ug/mL) and 2.65 ± 1.6 in assay [1] (agonist: MPLA 0.25 ug/mL). In addition, the IRF reporter in assay [2] (agonist: 3'3'-cGAMP 10 ug/mL) stood at 0.919 ± 0.032; in assay [2] (agonist: LPS 0.1 ug/mL), 1.29 ± 0.17; in assay [2] (agonist: MPLA 0.25 ug/mL) it was 1.4 ± 0.14. In assay [3], the viability score is active: 0.984.
As to `CN1C2CCC1CC(OC(c1ccccc1)c1ccccc1)C2.O=S(=O)(O)O` (stereo not drawn), the NF-kB reporter was found to be 0.956 ± 0.11 in assay [1] (setting [4]), 0.802 ± 0.048 in assay [1] (agonist: LPS 0.1 ug/mL) and 2.2 ± 0.051 in assay [1] (agonist: MPLA 0.25 ug/mL). The IRF reporter in assay [2] (agonist: 3'3'-cGAMP 10 ug/mL) stood at 0.876 ± 0.051; in assay [2] (agonist: LPS 0.1 ug/mL) it was 0.857 ± 0.1; in assay [2] (agonist: MPLA 0.25 ug/mL) it was 2.5 ± 0.39.
